Data from PubChem BioAssay AID2662 (National Center for Advancing Translational Sciences (NCATS), 2010).
The whole screen tested about 290,000 compounds, of which about 110 (0.038%) were called active. The shares of active, inactive and inconclusive entries below differ from those in the screen. The call rests on the fitted dose curve; in most records, active means well fitted inhibition curve with a large enough effect in the polarisation, with a control signal flat (not every such curve was filed as active); inconclusive means small, poorly fitted or top-dose-only effect, or effect the other way, or a change in a side signal; inactive means no such curve, though single readings can be large or run the other way; the % refers to the polarisation. Potencies of inconclusive entries are doubtful fits and often do not repeat. “Side channel” marks fits to a control or component signal instead of the main read-out.

Sequences of proteins named here, by UniProt entry; tags and fusion partners are left off.
UniProt Q03164, whole entry, looked up: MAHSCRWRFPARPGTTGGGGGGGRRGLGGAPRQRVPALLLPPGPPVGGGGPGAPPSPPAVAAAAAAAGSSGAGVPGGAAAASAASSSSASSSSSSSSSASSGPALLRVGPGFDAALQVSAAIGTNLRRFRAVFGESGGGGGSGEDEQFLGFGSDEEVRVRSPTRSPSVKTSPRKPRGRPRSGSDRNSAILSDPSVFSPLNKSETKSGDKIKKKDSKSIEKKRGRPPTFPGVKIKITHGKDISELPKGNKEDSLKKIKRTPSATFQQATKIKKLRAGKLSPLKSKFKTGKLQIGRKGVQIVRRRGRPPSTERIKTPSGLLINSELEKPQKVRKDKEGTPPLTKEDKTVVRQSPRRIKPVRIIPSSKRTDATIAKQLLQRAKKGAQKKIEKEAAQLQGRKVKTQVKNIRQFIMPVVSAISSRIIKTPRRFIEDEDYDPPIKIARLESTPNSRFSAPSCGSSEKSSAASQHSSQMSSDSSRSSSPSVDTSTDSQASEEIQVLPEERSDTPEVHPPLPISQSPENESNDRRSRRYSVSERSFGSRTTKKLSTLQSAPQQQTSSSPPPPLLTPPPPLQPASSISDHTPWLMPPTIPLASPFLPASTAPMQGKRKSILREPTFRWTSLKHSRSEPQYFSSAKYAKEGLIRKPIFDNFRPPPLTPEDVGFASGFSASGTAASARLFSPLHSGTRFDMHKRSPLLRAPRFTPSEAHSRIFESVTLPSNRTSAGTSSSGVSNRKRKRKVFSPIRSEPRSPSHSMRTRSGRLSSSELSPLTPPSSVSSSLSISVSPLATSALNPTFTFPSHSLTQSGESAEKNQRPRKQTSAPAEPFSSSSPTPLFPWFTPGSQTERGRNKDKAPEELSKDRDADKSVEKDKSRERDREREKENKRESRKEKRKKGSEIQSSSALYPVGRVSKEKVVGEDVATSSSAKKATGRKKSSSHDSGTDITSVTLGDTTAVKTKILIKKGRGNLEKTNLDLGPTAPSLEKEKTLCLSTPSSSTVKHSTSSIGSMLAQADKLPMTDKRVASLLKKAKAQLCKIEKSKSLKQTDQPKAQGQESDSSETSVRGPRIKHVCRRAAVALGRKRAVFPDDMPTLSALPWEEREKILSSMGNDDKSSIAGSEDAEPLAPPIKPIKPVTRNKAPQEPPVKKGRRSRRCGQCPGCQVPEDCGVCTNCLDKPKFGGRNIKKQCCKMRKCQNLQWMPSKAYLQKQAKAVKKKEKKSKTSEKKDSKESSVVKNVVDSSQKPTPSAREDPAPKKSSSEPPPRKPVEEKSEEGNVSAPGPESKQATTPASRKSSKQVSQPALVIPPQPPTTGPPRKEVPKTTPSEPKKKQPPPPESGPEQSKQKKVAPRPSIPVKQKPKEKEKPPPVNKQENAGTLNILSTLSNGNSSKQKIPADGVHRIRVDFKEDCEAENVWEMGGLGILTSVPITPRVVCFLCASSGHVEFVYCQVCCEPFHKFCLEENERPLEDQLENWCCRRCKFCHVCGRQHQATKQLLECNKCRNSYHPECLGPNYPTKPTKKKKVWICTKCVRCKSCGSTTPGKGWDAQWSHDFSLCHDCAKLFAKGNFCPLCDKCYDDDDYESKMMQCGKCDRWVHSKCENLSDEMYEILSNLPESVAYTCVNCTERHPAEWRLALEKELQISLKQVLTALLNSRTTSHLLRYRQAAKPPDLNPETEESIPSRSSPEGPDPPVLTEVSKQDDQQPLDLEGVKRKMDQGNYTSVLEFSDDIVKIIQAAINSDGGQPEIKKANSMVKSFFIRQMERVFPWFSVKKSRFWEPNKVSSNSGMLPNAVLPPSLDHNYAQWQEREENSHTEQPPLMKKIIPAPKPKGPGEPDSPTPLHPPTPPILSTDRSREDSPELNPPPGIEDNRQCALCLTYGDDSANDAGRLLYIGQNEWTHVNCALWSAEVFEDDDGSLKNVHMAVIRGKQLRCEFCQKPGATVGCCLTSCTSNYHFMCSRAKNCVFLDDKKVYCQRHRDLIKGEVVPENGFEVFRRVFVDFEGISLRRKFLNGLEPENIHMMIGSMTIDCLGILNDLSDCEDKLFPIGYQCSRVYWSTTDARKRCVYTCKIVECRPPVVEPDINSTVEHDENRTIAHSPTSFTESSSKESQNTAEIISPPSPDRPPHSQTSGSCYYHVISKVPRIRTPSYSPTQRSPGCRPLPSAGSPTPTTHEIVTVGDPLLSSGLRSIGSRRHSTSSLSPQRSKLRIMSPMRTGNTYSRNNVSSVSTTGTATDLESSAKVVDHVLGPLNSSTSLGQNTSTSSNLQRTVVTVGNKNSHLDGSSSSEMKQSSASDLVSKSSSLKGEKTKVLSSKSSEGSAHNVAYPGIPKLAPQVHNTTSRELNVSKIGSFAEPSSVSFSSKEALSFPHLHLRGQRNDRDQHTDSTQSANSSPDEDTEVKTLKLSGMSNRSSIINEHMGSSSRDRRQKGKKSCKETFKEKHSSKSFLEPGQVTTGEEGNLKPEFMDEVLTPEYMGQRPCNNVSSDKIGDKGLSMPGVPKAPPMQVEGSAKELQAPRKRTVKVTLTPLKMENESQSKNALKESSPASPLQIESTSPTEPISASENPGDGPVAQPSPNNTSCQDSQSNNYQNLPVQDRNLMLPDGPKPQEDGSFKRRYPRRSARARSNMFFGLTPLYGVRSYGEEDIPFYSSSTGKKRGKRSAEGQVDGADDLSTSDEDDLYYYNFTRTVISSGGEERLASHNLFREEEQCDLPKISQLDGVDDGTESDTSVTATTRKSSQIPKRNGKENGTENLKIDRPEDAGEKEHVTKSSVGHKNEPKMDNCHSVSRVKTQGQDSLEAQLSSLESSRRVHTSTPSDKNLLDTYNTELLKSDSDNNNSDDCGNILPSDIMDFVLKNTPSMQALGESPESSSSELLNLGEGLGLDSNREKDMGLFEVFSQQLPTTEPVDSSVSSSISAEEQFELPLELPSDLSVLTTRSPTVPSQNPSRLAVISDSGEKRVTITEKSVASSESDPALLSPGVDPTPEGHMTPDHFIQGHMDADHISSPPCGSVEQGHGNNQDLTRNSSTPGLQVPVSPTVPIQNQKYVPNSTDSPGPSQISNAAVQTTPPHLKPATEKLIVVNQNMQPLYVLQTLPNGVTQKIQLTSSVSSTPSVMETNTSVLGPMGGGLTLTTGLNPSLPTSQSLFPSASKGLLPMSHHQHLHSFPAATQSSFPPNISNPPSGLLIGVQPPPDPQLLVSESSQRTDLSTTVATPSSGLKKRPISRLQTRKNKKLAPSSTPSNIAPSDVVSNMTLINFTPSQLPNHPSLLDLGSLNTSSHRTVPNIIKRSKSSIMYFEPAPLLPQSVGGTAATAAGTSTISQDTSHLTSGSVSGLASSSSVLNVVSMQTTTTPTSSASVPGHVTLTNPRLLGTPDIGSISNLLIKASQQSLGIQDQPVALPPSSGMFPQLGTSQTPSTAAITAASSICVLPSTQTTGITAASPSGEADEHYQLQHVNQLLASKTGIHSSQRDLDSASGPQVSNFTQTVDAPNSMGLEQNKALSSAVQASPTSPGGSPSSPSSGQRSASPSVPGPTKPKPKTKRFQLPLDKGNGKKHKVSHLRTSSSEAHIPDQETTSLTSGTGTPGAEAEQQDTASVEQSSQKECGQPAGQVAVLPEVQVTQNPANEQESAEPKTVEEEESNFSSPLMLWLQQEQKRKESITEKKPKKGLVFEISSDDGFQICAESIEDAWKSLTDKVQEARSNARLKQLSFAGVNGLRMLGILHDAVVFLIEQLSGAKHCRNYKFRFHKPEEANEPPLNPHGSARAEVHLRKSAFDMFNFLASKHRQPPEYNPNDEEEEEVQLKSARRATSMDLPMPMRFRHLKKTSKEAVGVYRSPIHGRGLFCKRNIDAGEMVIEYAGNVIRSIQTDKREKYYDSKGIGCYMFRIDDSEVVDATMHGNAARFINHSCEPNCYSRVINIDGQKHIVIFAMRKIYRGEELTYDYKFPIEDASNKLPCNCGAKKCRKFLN

Target: Histone-lysine N-methyltransferase 2A (Homo sapiens) (UniProt Q03164)
Test: qHTS Fluorescence Polarization Assay for Inhibitors of MLL CXXC domain - DNA interaction
Settings: MLL-CXXC / FITC-HOXA9 DNA fluorescence polarization; activity change, negative = inhibition: at 115 µM (top of the series)
Method in brief: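 Purified MLL-CXXC (added from a 7 uM solution) was preincubated 5 min at ambient with pinned compounds in 50 mM Tris-HCl pH 7.5, 50 mM NaCl, 1 mM DTT, 0.05% BSA. Fluorescein-labeled HOX-A9 DNA (50 nM solution) followed, 30 min, then polarization read.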
Potency means the concentration at half of the fitted maximal effect.

SMILES | Potency | activity change, negative = inhibition
CCN1CC=C2C(C1)C(c1ccc(Cl)s1)C(C#N)=C(N)C2(C#N)C#N (stereo not drawn) | inconclusive: 39.8 µM [fluorescent, side channel, partial curve] | –
CCCc1cc(=O)[nH]c(SCCOc2ccc(OCC)cc2)n1 | inconclusive: 17.8 µM [inhibitor, full curve, poor fit] | –
Cc1cc(/C(O)=C2\C(=O)C(=O)N(CCN(C)C)C2c2ccncc2)ccc1OCc1ccccc1 (stereo not drawn) | inconclusive: 50.1 µM [quencher, side channel, single point] | –
O=C(c1ccc(Cn2cc([N+](=O)[O-])cn2)o1)N1CCCCCC1 | – | inconclusive: 14.2% [phenotype inactive]
O=C(O)c1ccc(CN2C(=O)c3cccc4c([N+](=O)[O-])ccc(c34)C2=O)cc1 | inconclusive: 15.8 µM [fluorescent, side channel, partial curve] | –
O/N=C1/CC/C(=N\O)c2nn(-c3ccccc3)nc21 | – | inactive: 4.66%
O=c1cc(-c2ccc(O)cc2)oc2c(O)c(O)c(O)c(O)c12 | inconclusive: 39.8 µM [inhibitor, single point] | –
O=C1NC2(CCCCCC2)C(=O)N1Cc1ccccc1 | inconclusive: 70.8 µM [fluorescent, side channel, single point] | –
CCCCOC(=O)Oc1ccc2c(=O)c(Oc3cc(C)cc(C)c3)coc2c1 | inconclusive: 28.2 µM [fluorescent, side channel, partial curve] | –
CN1CCN(CCCNC(=O)Nc2ccc([N+](=O)[O-])cc2)CC1 | inconclusive: 11.2 µM [fluorescent, side channel, single point] | –
COc1ccc(C(=O)/C=C/c2cccc(OCc3ccccc3)c2)cc1CSCC(=O)O | inconclusive: 14.1 µM [fluorescent, side channel, single point] | –
Cc1csc(NC(=O)CSc2nc(=O)cc(N)n2-c2ccc(F)cc2)n1 | – | inactive: 1.97%
Cc1sc2ncnc(-n3nnc4ccccc43)c2c1C | inconclusive: 14.1 µM [inhibitor, single point] | –
CCN1CCN(C(c2ccc(C(F)(F)F)cc2)c2ccc3cccnc3c2O)CC1 (stereo not drawn) | inconclusive: 31.6 µM [fluorescent, side channel, partial curve] | –
CCc1cc2c(=O)[nH]c(-c3ccccn3)nc2s1 | – | inactive: 8.06%
COc1cc(/C=C(\C#N)C(=O)NCCc2ccccc2)cc(OC)c1O | inconclusive: 56.2 µM [fluorescent, side channel, partial curve, poor fit] | –
O=C(/C=C(\O)c1ccccc1)C(=O)NNC(=O)c1ccccc1 | inconclusive: 11.2 µM [fluorescent, side channel, single point] | –
NS(=O)(=O)c1ccc(CCNCc2ccccc2OCc2ccc(Cl)cc2)cc1 | inconclusive: 39.8 µM [quencher, side channel, single point] | –
CC(C)N1CCc2c(sc(NC(=O)c3nc4ccccc4s3)c2C(N)=O)C1 | inconclusive: 35.5 µM [quencher, side channel, partial curve, poor fit] | –
COc1ccc(/C=C2\SC(=S)N(CCC(=O)N(CCO)c3ccccc3)C2=O)cc1OC | inconclusive: 89.1 µM [fluorescent, side channel, single point] | –

One compound at a time, from the list above:
`COc1cc(/C=C(\C#N)C(=O)NCCc2ccccc2)cc(OC)c1O` is entered as Potency: inconclusive: 56.2 µM [fluorescent, side channel, partial curve, poor fit]
`CCN1CCN(C(c2ccc(C(F)(F)F)cc2)c2ccc3cccnc3c2O)CC1` (stereo not drawn) is entered as Potency: inconclusive: 31.6 µM [fluorescent, side channel, partial curve]

(next part)

SMILES | Potency | activity change, negative = inhibition
NS(=O)(=O)c1ccc(CNC(=S)NC2CCCC2)cc1 | inconclusive: 14.1 µM [quencher, side channel, single point] | –
O=C1C(C2=C(O)c3ccccc3C2=O)=Nc2ccccc21 | inconclusive: 20 µM [inhibitor, partial curve] | –
NC(=O)C1CCN(C(=O)CCSCc2ccc(Cl)c(Cl)c2)CC1 | – | inactive: 2.22%
CN(c1ccccc1)c1ccc(/C=c2\s/c(=C(/C#N)C(=O)C(C)(C)C)n(Cc3ccco3)c2=O)cc1 | inconclusive: 1.12 µM [fluorescent, side channel, full curve] | –
CC(C)(C)c1ccc(C(=O)CCCN2CCC(OC(c3ccccc3)c3ccccc3)CC2)cc1 | – | inactive: -4.63%
O=C(Nc1ccc(SC(F)F)cc1)c1cccc2nc3ccccc3nc12 | – | inactive: -5.41%
CCOc1ccc(Nc2cc3n(c(=O)n2)CCc2cc(OC)c(OC)cc2-3)cc1 | inconclusive: 31.6 µM [fluorescent, side channel, single point] | –
CC(C)CN1C(=O)N(c2ccc(Cl)cc2)C(C)(O)CC1(C)C (stereo not drawn) | inconclusive: 70.8 µM [inhibitor, single point] | –
CC(CNc1ccccc1O)C(=O)O (stereo not drawn) | – | inactive: -8.34%
Clc1ccc(-n2cc(-c3ccc(Br)cc3)[n+]3c2CCCCC3)cc1 | inconclusive: 11.2 µM [quencher, side channel, partial curve] | –
COc1ccc(S(=O)(=O)N2CCC(C(=O)N[C@@H](C)C(=O)NCc3cccc(OC)c3)CC2)cc1 | – | inactive: 12.6%
N#C/C(=C\c1ccc(F)c(Cl)c1)S(=O)(=O)c1ccccn1 | inconclusive: 6.31 µM [inhibitor, partial curve] | –
COc1ccc(/C=c2\s/c(=C/C(=O)c3ccc(C)cc3)[nH]c2=O)c(OC)c1 | inconclusive: 5.62 µM [fluorescent, side channel, full curve] | –
COc1ccc(N2CCc3c(C)nc4c(OC)cc(OC)cc4c32)c(OC)c1 | inconclusive: 39.8 µM [quencher, side channel, single point] | –
c1ccc2c3c([nH]c2c1)C(C1CCCCC1)N(Cc1ncc[nH]1)CC3 (stereo not drawn) | – | inactive: 9.54%
CC(C)c1ccc2nc3sc(C(=O)N4CCc5ccccc5C4)c(N)c3cc2c1 | inconclusive: 39.8 µM [fluorescent, side channel, single point] | –
CCn1c(C(=O)NC2CCC(C)CC2)cc2sccc21 (stereo not drawn) | – | inactive: 23.3%
CCOC(=O)COc1ccc(/C=C2/C(=O)NN(c3ccc(F)cc3)C2=O)cc1OC | inconclusive: 5.01 µM [inhibitor, partial curve] | –
Cc1c(-c2ccc(/C=N/NC(=O)C(=O)Nc3ccccc3F)o2)cccc1[N+](=O)[O-] | inconclusive: 31.6 µM [fluorescent, side channel, partial curve] | –
Cc1nc2ccc(Nc3ccncc3)cc2s1 | inconclusive: 25.1 µM [fluorescent, side channel, partial curve] | –
CCCc1cc2c(-c3ccccc3)cc(=O)oc2cc1OCc1ccc(C(=O)O)o1 | inconclusive: 14.1 µM [fluorescent, side channel, single point] | –

SMILES | Potency | activity change, negative = inhibition
COc1ccc(NC(=O)CC2C(=O)N(c3cccc(OC)c3)C(=O)N2CCC(C)C)cc1 (stereo not drawn) | inconclusive: 14.1 µM [quencher, side channel, single point] | –
CCOC(=O)c1ccc(Nc2ncnc3nc[nH]c23)cc1 | inconclusive: 28.2 µM [fluorescent, side channel, partial curve] | –
Cc1cc(O)c(C(C)C)cc1Cl | – | inactive: 7.07%
CCN1/C(=C\c2ccc3cc(C)ccc3[n+]2CC)Sc2cc(C)c(C)cc21 | inconclusive: 7.08 µM [fluorescent, side channel, full curve] | –
CC(=O)Nc1ccc(S(=O)(=O)NNC(=O)c2cc3c4ccccc4n(C)c3s2)cc1 | – | inactive: 4.27%
CCc1cc2c(CN3CCN(CCO)CC3)cc(=O)oc2cc1O | – | inactive: 0.503%
CC(C)c1nc(SCC(=O)NC2CCCC2)c2ccccc2n1 | inconclusive: 10 µM [fluorescent, side channel, single point] | –
CC(C)N=C(NS(=O)(=O)c1ccccc1)C(Cl)(Cl)Cl | inconclusive: 3.98 µM [quencher, side channel, partial curve] | –
COC(=O)c1ccc(OC)c(-c2c(OC)cc(OC)cc2OC)c1 | – | inactive: 6.65%
CCOC(=O)C1CCN(C(=O)CN2C(=O)C(C(C)C)Oc3ccccc32)CC1 (stereo not drawn) | – | inactive: 2.39%
Cn1nnc(NC(=O)c2ccccc2F)n1 | inconclusive: 1 µM [inhibitor, full curve, poor fit] | –
COc1cccc(NC(=S)N/N=C2/CCCCc3ccccc32)c1 | inconclusive: 50.1 µM [inhibitor, single point] | –
CC1=C(C#N)C(=O)N(C2CCS(=O)(=O)C2)C(=O)/C1=C\c1ccco1 (stereo not drawn) | inconclusive: 14.1 µM [inhibitor, partial curve] | –
Cc1c(C(=O)Nc2cccc([N+](=O)[O-])c2)cnn1-c1ccccc1 | – | inactive: -7.2%
Cn1cc(C(=O)[C@@H]2CCc3[nH]cnc3C2)c2ccccc21 | – | inactive: -10.6%
Cc1ccc(S(=O)(=O)N2CCCCC2)cc1C(=O)NCc1ccccn1 | – | inactive: 23.5%
COC(=O)C1=COC(C)C2CN3CCc4c([nH]c5cc(OC)c(OC)cc45)C3CC12 (stereo not drawn) | inconclusive: 25.1 µM [fluorescent, side channel, partial curve] | –
CCOC(=O)c1c(NC(=S)NC(C)=O)sc(C)c1C | inconclusive: 79.4 µM [fluorescent, side channel, single point] | –
CCOc1cc(CNCc2ccccc2)ccc1OCc1ccc(Cl)cc1 | – | inactive: -13.5%
COc1cc(C2CC(=O)Nc3c2c(=O)nc2c(C)cccn32)cc(OC)c1OC (stereo not drawn) | inconclusive: 89.1 µM [quencher, side channel, single point] | –
Oc1ccccc1C=NC1=NN(c2cccc(C(F)(F)F)c2)CC1 | inconclusive: 39.8 µM [fluorescent, side channel, single point] | –
